No constants are given. Whether binding was seen depends on the method and setting. In cells and extracts the contact can be indirect. Some binding calls cover weakened binding; strength is not graded here.
Experiments:
[1] = target: hKDR (GFP-KDR), kinase insert domain receptor fused to GFP (human) (UniProt P35968); experiment: co-IP; lysates of 293T cells transfected with Tax and KDR-GFP plasmids; anti-KDR and reciprocal anti-Tax immunoprecipitates; Dynabeads Protein G
[2] = target: HTLV-1 Tax oncoprotein, endogenous in HTLV-1-transformed T-cell lines (HTLV-1 (endogenous in C8166, MT-2, HUT-102)) (UniProt P03409); experiment: co-IP; membrane fractions from C8166 and MT-2 cells; control IgG, anti-Tax or anti-KDR immunoprecipitates; endogenous proteins
[3] = target: kinase insert domain receptor (KDR), endogenous in HTLV-1-transformed T-cell lines (human (endogenous in C8166, MT-2, HUT-102)) (UniProt P35968); experiment: as above
[4] = target: NEMO, endogenous in MT-2 cells (human (endogenous in MT-2)) (UniProt Q9Y6K9); experiment: co-IP; lysates from MT-2 cells treated with SU 1498 and leupeptin (20 uM) for 24 h; control IgG or anti-NEMO immunoprecipitates; endogenous proteins
[5] = target: kinase insert domain receptor (KDR), endogenous in HTLV-1-transformed T-cell lines (human (endogenous in C8166, MT-2, HUT-102)) (UniProt P35968); experiment: proximity ligation; in situ PLA (Duolink In Situ Red, mouse/rabbit) on fixed, permeabilized C8166 and HUT-102 cells with anti-KDR (rabbit) and anti-Tax (mouse)
[6] = target: HTLV-1 Tax oncoprotein, expressed from the pCMV4-Tax plasmid (HTLV-1) (UniProt P03409); experiment: co-IP; lysates of 293T cells transfected with Tax and KDR-GFP plasmids; anti-KDR and reciprocal anti-Tax immunoprecipitates; Dynabeads Protein G

## HTLV-1 Tax oncoprotein, expressed from the pCMV4-Tax plasmid (from UniProt P03409 1-353)
[1]
  binding: binds

## kinase insert domain receptor (KDR), endogenous in HTLV-1-transformed T-cell lines (from UniProt P35968 20-1356)
[2]
  binding: binds

## HTLV-1 Tax oncoprotein, endogenous in HTLV-1-transformed T-cell lines (from UniProt P03409 1-353)
[3]
  binding: binds
[4]
  binding: binds
[5]
  binding: binds

## hKDR (GFP-KDR), kinase insert domain receptor fused to GFP (from UniProt P35968 20-1356)
[6]
  binding: binds
